Among the data in publication PMC9870992 are binding values, retold here.

The chains behind the UniProt entries cited, without tags or fusion partners.
UniProt P78347: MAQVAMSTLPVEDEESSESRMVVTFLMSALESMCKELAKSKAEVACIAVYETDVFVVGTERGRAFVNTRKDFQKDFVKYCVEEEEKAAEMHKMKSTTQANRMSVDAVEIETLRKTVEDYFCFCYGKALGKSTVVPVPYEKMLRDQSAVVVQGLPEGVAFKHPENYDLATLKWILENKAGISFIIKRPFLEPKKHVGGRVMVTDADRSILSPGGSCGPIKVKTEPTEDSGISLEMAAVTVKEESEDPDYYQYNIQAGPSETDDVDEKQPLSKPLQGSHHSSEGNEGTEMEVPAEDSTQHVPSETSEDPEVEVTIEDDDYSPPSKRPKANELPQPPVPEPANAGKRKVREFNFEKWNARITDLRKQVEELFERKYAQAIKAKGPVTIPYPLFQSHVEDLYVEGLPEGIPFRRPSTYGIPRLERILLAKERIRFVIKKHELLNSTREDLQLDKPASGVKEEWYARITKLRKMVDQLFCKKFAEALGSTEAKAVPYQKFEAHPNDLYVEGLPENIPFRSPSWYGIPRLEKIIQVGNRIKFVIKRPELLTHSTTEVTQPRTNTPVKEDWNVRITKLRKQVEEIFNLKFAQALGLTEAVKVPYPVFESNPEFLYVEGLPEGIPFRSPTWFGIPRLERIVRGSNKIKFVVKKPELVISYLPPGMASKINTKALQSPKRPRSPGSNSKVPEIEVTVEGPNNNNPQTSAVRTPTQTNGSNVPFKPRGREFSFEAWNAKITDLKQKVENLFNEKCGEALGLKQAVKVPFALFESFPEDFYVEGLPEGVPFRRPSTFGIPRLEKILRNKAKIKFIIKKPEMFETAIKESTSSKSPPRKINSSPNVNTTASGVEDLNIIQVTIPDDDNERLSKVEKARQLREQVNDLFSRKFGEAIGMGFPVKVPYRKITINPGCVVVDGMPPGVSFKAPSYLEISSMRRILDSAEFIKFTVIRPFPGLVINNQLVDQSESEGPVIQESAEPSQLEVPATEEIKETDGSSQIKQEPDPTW

In the experiment the target is T1, TRIM24-Flag (UniProt O15164).
T1 sequence: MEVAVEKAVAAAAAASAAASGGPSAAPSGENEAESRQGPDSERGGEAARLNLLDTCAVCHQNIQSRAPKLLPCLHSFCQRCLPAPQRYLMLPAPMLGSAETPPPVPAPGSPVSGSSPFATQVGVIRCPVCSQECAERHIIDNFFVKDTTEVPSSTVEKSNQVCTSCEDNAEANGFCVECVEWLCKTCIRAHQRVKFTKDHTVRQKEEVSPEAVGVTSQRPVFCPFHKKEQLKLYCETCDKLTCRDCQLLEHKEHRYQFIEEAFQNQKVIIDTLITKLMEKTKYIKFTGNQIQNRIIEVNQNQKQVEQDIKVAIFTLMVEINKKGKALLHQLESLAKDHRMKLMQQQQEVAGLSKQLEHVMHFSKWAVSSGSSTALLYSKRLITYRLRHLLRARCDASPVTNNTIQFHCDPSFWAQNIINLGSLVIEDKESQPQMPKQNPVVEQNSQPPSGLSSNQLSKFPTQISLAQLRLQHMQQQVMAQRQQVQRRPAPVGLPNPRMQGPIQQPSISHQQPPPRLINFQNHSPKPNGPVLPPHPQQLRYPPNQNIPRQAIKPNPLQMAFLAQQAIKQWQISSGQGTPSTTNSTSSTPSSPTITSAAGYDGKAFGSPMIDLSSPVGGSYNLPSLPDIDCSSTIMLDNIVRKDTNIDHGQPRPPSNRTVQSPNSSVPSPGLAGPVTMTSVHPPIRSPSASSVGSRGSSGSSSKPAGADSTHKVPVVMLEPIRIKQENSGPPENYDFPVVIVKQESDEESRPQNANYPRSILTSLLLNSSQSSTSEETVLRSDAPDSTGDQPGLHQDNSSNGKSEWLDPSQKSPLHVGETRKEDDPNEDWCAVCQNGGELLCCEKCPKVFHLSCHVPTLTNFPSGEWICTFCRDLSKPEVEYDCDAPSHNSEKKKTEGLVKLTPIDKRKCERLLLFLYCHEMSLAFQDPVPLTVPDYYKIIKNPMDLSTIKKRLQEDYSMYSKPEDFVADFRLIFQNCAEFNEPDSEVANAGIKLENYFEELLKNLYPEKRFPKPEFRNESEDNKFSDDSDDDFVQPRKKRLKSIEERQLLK
Briefly: co-IP; Jurkat cells transduced with TRIM24-Flag lentivirus; 250 μg nuclear extract in Flag-IP Buffer (50 mM Tris-HCl pH 8.0, 90 mM NaCl, 1 mM EDTA, 1% Triton X-100); anti-Flag IP at 4 °C, protein A/G agarose; blot with anti-TFII-I antibody.

Results are given in words; binding and its absence hold for the method and conditions named. In cells and extracts the contact can be indirect. Some binding calls cover weakened binding; strength is not graded here. Sequences can lack the tags named with a protein.

Turning to “endogenous TFII-I (from UniProt P78347 1-998)”, the binding entry was “binds”.
